{
  "sequences": {"note": "Protein sequences, listed by entry. Tags and fused reporters are not part of them. Lines headed by an entry give the natural chain unless they say otherwise; changes in a name come on top. Chains listed by the source or under a name are the forms on record and can include a tag or linker. Residues count along the entry.", "UniProt O35161, residues 30-3034": "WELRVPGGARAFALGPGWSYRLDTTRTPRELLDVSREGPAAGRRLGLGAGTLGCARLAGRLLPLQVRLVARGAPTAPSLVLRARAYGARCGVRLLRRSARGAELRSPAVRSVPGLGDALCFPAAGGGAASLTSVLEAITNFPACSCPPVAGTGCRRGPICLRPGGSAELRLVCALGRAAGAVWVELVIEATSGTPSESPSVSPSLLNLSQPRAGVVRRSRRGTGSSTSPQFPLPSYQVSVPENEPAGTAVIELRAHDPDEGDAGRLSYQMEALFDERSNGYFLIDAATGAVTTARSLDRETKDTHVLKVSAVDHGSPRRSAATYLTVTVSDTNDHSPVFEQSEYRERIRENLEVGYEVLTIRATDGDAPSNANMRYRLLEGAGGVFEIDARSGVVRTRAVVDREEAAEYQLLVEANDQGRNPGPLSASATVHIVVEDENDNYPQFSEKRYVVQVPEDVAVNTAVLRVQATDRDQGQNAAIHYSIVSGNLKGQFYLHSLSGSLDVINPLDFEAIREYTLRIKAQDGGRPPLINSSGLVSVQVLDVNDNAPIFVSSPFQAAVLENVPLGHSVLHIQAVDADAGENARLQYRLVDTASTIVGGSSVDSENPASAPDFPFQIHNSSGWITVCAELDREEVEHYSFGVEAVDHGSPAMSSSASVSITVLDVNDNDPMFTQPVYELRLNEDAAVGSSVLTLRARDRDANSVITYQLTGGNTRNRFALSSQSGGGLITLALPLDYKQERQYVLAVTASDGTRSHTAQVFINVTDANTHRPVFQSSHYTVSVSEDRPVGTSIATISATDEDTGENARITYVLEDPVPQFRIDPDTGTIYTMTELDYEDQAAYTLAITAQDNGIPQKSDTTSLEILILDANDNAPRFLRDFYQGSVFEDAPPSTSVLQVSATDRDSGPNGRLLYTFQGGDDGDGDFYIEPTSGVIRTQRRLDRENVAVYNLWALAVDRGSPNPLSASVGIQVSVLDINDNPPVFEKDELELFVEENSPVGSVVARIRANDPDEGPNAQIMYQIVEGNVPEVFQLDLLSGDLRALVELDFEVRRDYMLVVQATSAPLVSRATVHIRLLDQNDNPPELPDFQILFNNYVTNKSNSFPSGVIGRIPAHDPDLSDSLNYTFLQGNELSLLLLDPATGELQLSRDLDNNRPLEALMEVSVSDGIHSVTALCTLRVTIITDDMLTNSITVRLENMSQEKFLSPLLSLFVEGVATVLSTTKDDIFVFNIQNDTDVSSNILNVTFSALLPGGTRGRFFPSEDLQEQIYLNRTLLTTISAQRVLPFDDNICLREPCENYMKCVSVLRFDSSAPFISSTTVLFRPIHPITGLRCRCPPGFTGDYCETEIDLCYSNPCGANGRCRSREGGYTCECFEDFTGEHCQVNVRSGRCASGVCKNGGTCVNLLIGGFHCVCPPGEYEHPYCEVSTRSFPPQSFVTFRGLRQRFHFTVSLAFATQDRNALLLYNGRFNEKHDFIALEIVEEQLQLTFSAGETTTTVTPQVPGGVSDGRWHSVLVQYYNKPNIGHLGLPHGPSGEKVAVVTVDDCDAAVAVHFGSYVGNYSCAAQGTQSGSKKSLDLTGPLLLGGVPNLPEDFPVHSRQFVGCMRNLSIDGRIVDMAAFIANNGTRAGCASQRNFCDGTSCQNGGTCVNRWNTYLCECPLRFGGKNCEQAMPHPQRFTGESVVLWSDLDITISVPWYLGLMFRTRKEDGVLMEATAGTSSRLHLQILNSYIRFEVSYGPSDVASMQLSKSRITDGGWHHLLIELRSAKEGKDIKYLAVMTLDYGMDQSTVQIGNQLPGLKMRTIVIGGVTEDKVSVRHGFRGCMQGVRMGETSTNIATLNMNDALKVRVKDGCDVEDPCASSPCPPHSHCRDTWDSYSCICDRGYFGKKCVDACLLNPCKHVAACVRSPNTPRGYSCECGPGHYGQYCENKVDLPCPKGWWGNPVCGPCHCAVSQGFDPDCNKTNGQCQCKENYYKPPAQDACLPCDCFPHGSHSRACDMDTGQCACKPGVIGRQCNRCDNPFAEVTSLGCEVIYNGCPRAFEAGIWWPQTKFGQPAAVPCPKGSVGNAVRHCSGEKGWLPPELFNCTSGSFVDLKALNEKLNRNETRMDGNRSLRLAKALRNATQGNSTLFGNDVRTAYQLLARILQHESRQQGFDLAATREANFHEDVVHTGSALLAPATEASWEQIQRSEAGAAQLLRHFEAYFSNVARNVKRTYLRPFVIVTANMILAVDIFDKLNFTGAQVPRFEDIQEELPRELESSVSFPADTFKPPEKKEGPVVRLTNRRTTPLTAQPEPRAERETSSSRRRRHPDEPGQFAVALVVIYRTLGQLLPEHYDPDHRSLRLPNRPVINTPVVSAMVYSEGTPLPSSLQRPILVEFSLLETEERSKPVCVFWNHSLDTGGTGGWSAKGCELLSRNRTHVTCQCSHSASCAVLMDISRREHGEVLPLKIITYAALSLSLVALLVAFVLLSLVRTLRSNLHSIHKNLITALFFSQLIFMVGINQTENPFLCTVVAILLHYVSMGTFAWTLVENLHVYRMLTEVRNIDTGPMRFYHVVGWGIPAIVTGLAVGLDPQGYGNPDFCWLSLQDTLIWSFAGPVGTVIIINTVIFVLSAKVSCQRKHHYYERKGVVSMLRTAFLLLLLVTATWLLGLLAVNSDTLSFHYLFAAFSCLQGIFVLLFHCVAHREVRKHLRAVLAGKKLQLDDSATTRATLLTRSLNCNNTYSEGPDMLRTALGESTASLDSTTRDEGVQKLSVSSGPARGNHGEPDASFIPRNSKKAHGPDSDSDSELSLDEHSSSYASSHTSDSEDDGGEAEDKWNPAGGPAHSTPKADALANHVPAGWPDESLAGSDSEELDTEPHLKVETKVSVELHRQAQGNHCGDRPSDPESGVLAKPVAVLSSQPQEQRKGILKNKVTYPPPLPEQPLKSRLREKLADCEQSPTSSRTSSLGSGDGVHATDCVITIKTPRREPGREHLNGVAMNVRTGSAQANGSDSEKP", "His-tagged human Sar1A (H79G) (Q9NR31, form named)": "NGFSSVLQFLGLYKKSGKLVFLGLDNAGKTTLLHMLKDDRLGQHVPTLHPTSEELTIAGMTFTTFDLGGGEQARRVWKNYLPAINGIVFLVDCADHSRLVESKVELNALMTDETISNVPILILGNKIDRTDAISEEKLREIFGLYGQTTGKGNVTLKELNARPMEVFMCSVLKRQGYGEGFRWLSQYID"},
  "source": "paper PMC7335806",
  "key": {"[1]": {"target": "T1, HA-tagged Fzd6 construct containing a FLAG tag in the C-terminal cytosolic domain (mouse) (UniProt Q61089)", "T1 sequence": "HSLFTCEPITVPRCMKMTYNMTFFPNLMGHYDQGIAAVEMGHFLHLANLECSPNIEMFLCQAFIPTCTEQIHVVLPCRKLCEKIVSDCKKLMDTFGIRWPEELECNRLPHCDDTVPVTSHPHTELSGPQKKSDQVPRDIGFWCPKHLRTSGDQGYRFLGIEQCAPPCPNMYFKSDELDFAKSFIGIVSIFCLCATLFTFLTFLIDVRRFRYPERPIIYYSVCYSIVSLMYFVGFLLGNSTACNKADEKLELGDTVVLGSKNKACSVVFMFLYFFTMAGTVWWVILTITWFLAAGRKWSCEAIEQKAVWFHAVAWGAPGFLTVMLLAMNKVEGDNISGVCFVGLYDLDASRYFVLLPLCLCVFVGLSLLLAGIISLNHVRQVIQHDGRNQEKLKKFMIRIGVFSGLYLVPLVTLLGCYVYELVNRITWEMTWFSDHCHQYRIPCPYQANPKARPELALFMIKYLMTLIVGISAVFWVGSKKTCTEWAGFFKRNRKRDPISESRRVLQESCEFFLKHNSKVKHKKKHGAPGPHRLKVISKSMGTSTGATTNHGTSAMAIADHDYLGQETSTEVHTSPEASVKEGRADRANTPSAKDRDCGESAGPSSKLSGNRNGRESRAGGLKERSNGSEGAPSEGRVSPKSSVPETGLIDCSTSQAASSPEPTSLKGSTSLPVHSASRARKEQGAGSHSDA", "test": "co-IP; lysates of HEK293T cells cotransfected with HA-Fzd6-FLAG and Celsr1-Myc on anti-FLAG M2-agarose in HKT buffer, 4 °C overnight; eluted with FLAG peptides; immunoblotting"}, "[2]": {"target": "T2, RRFR peptides (first intracellular loop of Fzd6) (mouse)", "T2 sequence (peptide)": "VRRFRYPERPC", "test": "pull-down; peptides (5 nmol) covalently coupled to thiopyridone-Sepharose 6B beads via the C-terminal cysteine; 2 μg purified His-tagged Sar1A preincubated with 500 μM GTPγS in HK buffer (100 mM KCl, 20 mM Hepes pH 7.2); 1 h at 4 °C; immunoblotting; both purified"}},
  "note": "No constants are given. Whether binding was seen depends on the method and setting. For some assays here: In cells and extracts the contact can be indirect. Some results given as binding are weak or reduced against the parent protein; the word gives no strength. For some assays here: Sequences can lack the tags named with a protein.",
  "data": [
    {"substance": "Myc-tagged mouse Celsr1 (from UniProt O35161 30-3034) (receptor)", "values": [
      {"measurement": "binding", "setting": "[1]", "result": "binds"}
    ]},
    {"substance": "His-tagged human Sar1A (H79G) (from UniProt Q9NR31 10-198) (enzyme)", "values": [
      {"measurement": "binding", "setting": "[2]", "result": "binds"}
    ]}
  ]
}
